PubChem BioAssay AID1159578 – Peter MacCallum Cancer Centre | 2015
In all, the deposit lists about 18,000 reagents; below is a random part of them. About 1,030 of all reagents (5.7%) were called active. 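Inactive calls also include pools with fewer than 3300 nuclei, whose migration was not assessed.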 The raw values are shown without normalisation. A number with no mark means an inactive call. Not all columns of the deposit are shown. Reagent sequences are not shown.

Test: 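siRNA pools altering how lymphatic endothelial cells close a scratch wound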 (primary screen)
Cell system: human lymphatic endothelial cells
Reagents: siRNA pool against human genes, 40 nM
Timing: 48 h after transfection
Measurement: 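High-content imaging of dye-stained cells in a scratch assay measures filled wound area and nuclei per well; duplicate means given as ratio to mock and robust z-score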
Scale: migration robust z-score: higher = faster migration into the scratch; nuclei per well: higher = more cells in the well
Rule for the call: 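Migration changed when robust z exceeds 2 or falls below -2 and mean nuclei number is at least 3300; otherwise not called changed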
Meaning of the calls: active = migration changed; inactive = no migration change, or too few cells

| Gene | migration robust z-score | migration class with cell-count check | nuclei per well, duplicate mean |
| --- | --- | --- | --- |
| NPEPL1 (aminopeptidase like 1) | 0.8 | migration z between -2 and 2; enough cells | 5912 |
| C3orf52 (chromosome 3 open reading frame 52) | -0.08 | migration z between -2 and 2; enough cells | 5706 |
| CD69 (CD69 molecule) | 0.28 | migration z between -2 and 2; enough cells | 5753 |
| SP110 (SP110 nuclear body protein) | -0.72 | migration z between -2 and 2; enough cells | 5398 |
| DTX1 (deltex E3 ubiquitin ligase 1) | 1.42 | migration z between -2 and 2; enough cells | 5024 |
| ITGB1 (integrin subunit beta 1) | -1.35 | migration z between -2 and 2; enough cells | 5958 |
| TNFRSF14 (TNF receptor superfamily member 14) | 0.43 | migration z between -2 and 2; enough cells | 8352 |
| PLEKHA8P1 (pleckstrin homology domain containing A8 pseudogene 1) | 0.9 | migration z between -2 and 2; enough cells | 4314 |
| IQCN (IQ motif containing N) | 0.68 | migration z between -2 and 2; enough cells | 5824 |
| CHMP7 (charged multivesicular body protein 7) | -1.06 | migration z between -2 and 2; enough cells | 5854 |
| CCDC93 (CCC complex scaffolding subunit CCDC93) | 1.15 | migration z between -2 and 2; enough cells | 5510 |
| VGLL3 (vestigial like family member 3) | -1.16 | migration z between -2 and 2; enough cells | 4528 |
| MAP3K7CL (MAP3K7 C-terminal like) | 1.15 | migration z between -2 and 2; enough cells | 4598 |
| TMEM37 (transmembrane protein 37) | -0.05 | migration z between -2 and 2; enough cells | 5981 |
| QRICH2 (glutamine rich 2) | 1.01 | migration z between -2 and 2; enough cells | 5690 |
| ZNF829 (zinc finger protein 829) | 0.48 | migration z between -2 and 2; enough cells | 5516 |
| CSK (C-terminal Src kinase) | -2.42 (active) | migration z below -2; enough cells | 5689 |
| ZNF287 (zinc finger protein 287) | -0.72 | migration z between -2 and 2; enough cells | 5680 |
| C5orf15 (chromosome 5 open reading frame 15) | 1.15 | migration z between -2 and 2; enough cells | 5799 |
| DHRSX (dehydrogenase/reductase X-linked) | -0.52 | migration z between -2 and 2; enough cells | 4874 |
| DEFB113 (defensin beta 113) | 0.7 | migration z between -2 and 2; enough cells | 6714 |
| AHCYL1 (adenosylhomocysteinase like 1) | -1.58 | migration z between -2 and 2; enough cells | 4833 |
| SYT13 (synaptotagmin 13) | 0.64 | migration z between -2 and 2; enough cells | 4798 |
| CALCR (calcitonin receptor) | 0.24 | migration z between -2 and 2; enough cells | 6726 |
| GFPT1 (glutamine--fructose-6-phosphate transaminase 1) | 0.57 | migration z between -2 and 2; enough cells | 6132 |
| NDUFS5 (NADH:ubiquinone oxidoreductase subunit S5) | -1.5 | migration z between -2 and 2; enough cells | 5959 |
| C6orf89 (chromosome 6 open reading frame 89) | 2.02 (active) | migration z above 2; enough cells | 6159 |
| AP4B1 (adaptor related protein complex 4 subunit beta 1) | -0.64 | migration z between -2 and 2; enough cells | 5310 |
| C1QTNF7 (C1q and TNF related 7) | -0.78 | migration z between -2 and 2; enough cells | 4664 |
| SLC41A1 | 0.57 | migration z between -2 and 2; enough cells | 5516 |
| ZNF792 (zinc finger protein 792) | 1.03 | migration z between -2 and 2; enough cells | 5230 |
| CACNA2D3 | -0.57 | migration z between -2 and 2; enough cells | 5610 |
| KCNJ10 (potassium inwardly rectifying channel subfamily J member 10) | 0.39 | migration z between -2 and 2; enough cells | 4478 |
| CD4 (CD4 molecule) | 1.81 | migration z between -2 and 2; enough cells | 5255 |
| KAT6B (lysine acetyltransferase 6B) | 0.28 | migration z between -2 and 2; enough cells | 4992 |

Quoted from the entries so far for reference:
| Gene | migration robust z-score | migration class with cell-count check | nuclei per well, duplicate mean |
| --- | --- | --- | --- |
| DTX1 (deltex E3 ubiquitin ligase 1) | 1.42 | migration z between -2 and 2; enough cells | 5024 |
| ITGB1 (integrin subunit beta 1) | -1.35 | migration z between -2 and 2; enough cells | 5958 |
| TNFRSF14 (TNF receptor superfamily member 14) | 0.43 | migration z between -2 and 2; enough cells | 8352 |
| PLEKHA8P1 (pleckstrin homology domain containing A8 pseudogene 1) | 0.9 | migration z between -2 and 2; enough cells | 4314 |
| IQCN (IQ motif containing N) | 0.68 | migration z between -2 and 2; enough cells | 5824 |
| CHMP7 (charged multivesicular body protein 7) | -1.06 | migration z between -2 and 2; enough cells | 5854 |
| CCDC93 (CCC complex scaffolding subunit CCDC93) | 1.15 | migration z between -2 and 2; enough cells | 5510 |
| VGLL3 (vestigial like family member 3) | -1.16 | migration z between -2 and 2; enough cells | 4528 |

Further reagents follow.
| Gene | migration robust z-score | migration class with cell-count check | nuclei per well, duplicate mean |
| --- | --- | --- | --- |
| ZC4H2 (zinc finger C4H2-type containing) | -0.58 | migration z between -2 and 2; enough cells | 4169 |
| PRIM2 (DNA primase subunit 2) | -3.63 | under 3300 nuclei; migration not judged | 2230 |
| SALL4 (spalt like transcription factor 4) | 0 | migration z between -2 and 2; enough cells | 6359 |
| SMIM29 (small integral membrane protein 29) | 0.68 | migration z between -2 and 2; enough cells | 5847 |
| HOXA13 (homeobox A13) | -0.15 | under 3300 nuclei; migration not judged | 1076 |
| TACC3 (transforming acidic coiled-coil containing protein 3) | 0.43 | migration z between -2 and 2; enough cells | 6850 |
| POM121L12 (POM121 transmembrane nucleoporin like 12) | -1.66 | migration z between -2 and 2; enough cells | 6072 |
| ZNF137P (zinc finger protein 137, pseudogene) | -0.23 | migration z between -2 and 2; enough cells | 5854 |
| PNPLA1 (patatin like domain 1, omega-hydroxyceramide transacylase) | -1.27 | migration z between -2 and 2; enough cells | 4802 |
| RTL6 (retrotransposon Gag like 6) | -0.04 | migration z between -2 and 2; enough cells | 5269 |
| SLC17A3 | 0.23 | migration z between -2 and 2; enough cells | 5180 |
| PLP2 (proteolipid protein 2) | 0.54 | migration z between -2 and 2; enough cells | 6036 |
| BORA (BORA aurora kinase A activator) | 0.1 | migration z between -2 and 2; enough cells | 5596 |
| APBA2 (amyloid beta precursor protein binding family A member 2) | 1.21 | migration z between -2 and 2; enough cells | 5816 |
| DHX58 (DExH-box helicase 58) | -1.66 | migration z between -2 and 2; enough cells | 5976 |
| ADAMTSL4 (ADAMTS like 4) | 0.52 | migration z between -2 and 2; enough cells | 6706 |
| BCAR1 (BCAR1 scaffold protein, Cas family member) | -1.64 | migration z between -2 and 2; enough cells | 5822 |
| GRK3 (G protein-coupled receptor kinase 3) | 0.73 | migration z between -2 and 2; enough cells | 4896 |
| SLIT2 (slit guidance ligand 2) | -0.34 | migration z between -2 and 2; enough cells | 5152 |
| CDK6 (cyclin dependent kinase 6) | -1.12 | migration z between -2 and 2; enough cells | 4901 |
| OR51S1 (olfactory receptor family 51 subfamily S member 1) | -0.69 | migration z between -2 and 2; enough cells | 6279 |
| GNL3L (G protein nucleolar 3 like) | 0.88 | migration z between -2 and 2; enough cells | 5886 |
